Assay results from patent publication US12535491B2, “Vaccine comprising protein-targeted (PT) extracellular DNA isolated from bacterial matrix” (priority 2018, dated 2026).

Test system: heat-resistant proteins of human plasma
Assay: LC/MS of heat-resistant proteins in plasma after exposure to proteinase K and boiling
Conditions: LC/MS; control plasma with added proteinase K, heated at 100° C. for 5 minutes

| Molecule | N-plasma + pk |
| --- | --- |
| IGHA1_HUMAN [2] (protein, UniProt P01876 1-398, looked up) Immunoglobulin heavy constant …: ASPTSPKVFPLSLCSTQPDGNVVIACLVQGFFPQEPLSVTWSESGQGVTARNFPPSQDASGDLYTTSSQLTLPATQCLAGKSVTCHVKHYTNPSQDVTVPCPVPSTPPTPSPSTPPTPSPSCCHPRLSLHRPALEDLLLGSEANLTCTLTGLRDASGVTFTWTPSSGKSAVQGPPERDLCGCYSVSSVLPGCAEPWNHGKTFTCTAAYPESKTPLTATLSKSGNTFRPEVHLLPPPSEELALNELVTLTCLARGFSPKDVLVRWLQGSQELPREKYLTWASRQEPSQGTTTFAVTSILRVAAEDWKKGDTFSCMVGHEALPLAFTQKTIDRLADWQMPPPYVVLDLPQETLEEETPGANLWPTTITFLTLFLLSLFYSTALTVTSVRGPSGNREGPQY | 36 |

Same assay, conditions: LC/MS; healthy human blood plasma after incubation for 30 minutes with Proteinase K, following heating for 100° C. for 5 minutes (probe_2)

| Molecule | N-plasma + pK |
| --- | --- |
| PGRP2_HUMAN (protein, UniProt Q96PD5 22-576, looked up) N-acetylmuramoyl-L-alanine …: SLPLLMDSVIQALAELEQKVPAAKTRHTASAWLMSAPNSGPHNRLYHFLLGAWSLNATELDPCPLSPELLGLTKEVARHDVREGKEYGVVLAPDGSTVAVEPLLAGLEAGLQGRRVINLPLDSMAAPWETGDTFPDVVAIAPDVRATSSPGLRDGSPDVTTADIGANTPDATKGCPDVQASLPDAKAKSPPTMVDSLLAVTLAGNLGLTFLRGSQTQSHPDLGTEGCWDQLSAPRTFTLLDPKASLLTMAFLNGALDGVILGDYLSRTPEPRPSLSHLLSQYYGAGVARDPGFRSNFRRQNGAALTSASILAQQVWGTLVLLQRLEPVHLQLQCMSQEQLAQVAANATKEFTEAFLGCPAIHPRCRWGAAPYRGRPKLLQLPLGFLYVHHTYVPAPPCTDFTRCAANMRSMQRYHQDTQGWGDIGYSFVVGSDGYVYEGRGWHWVGAHTLGHNSRGFGVAIVGNYTAALPTEAALRTVRDTLPSCAVRAGLLRPDYALLGHRQLVRTDCPGDALFDLLRTWPHFTATVKPRPARSVSKRSRREPPPRTLPATDLQ | 5 |
| HV372_HUMAN (protein, UniProt A0A0B4J1Y9 20-119, looked up) Immunoglobulin heavy variable …: EVQLVESGGGLVQPGGSLRLSCAASGFTFSDHYMDWVRQAPGKGLEWVGRTRNKANSYTTEYAASVKGRFTISRDDSKNSLYLQMNSLKTEDTAVYYCAR | 1 |
| CD5L_HUMAN (protein, UniProt O43866 20-347, looked up) CD5 antigen-like: SPSGVRLVGGLHRCEGRVEVEQKGQWGTVCDDGWDIKDVAVLCRELGCGAASGTPSGILYEPPAEKEQKVLIQSVSCTGTEDTLAQCEQEEVYDCSHDEDAGASCENPESSFSPVPEGVRLADGPGHCKGRVEVKHQNQWYTVCQTGWSLRAAKVVCRQLGCGRAVLTQKRCNKHAYGRKPIWLSQMSCSGREATLQDCPSGPWGKNTCNHDEDTWVECEDPFDLRLVGGDNLCSGRLEVLHKGVWGSVCDDNWGEKEDQVVCKQLGCGKSLSPSFRDRKCYGPGVGRIWLDNVRCSGEEQSLEQCQHRFWGFHDCTHQEDVAVICSG | 9 |
| ALS_HUMAN (protein, UniProt P35858 28-605, looked up) Insulin-like growth …: ADPGTPGEAEGPACPAACVCSYDDDADELSVFCSSRNLTRLPDGVPGGTQALWLDGNNLSSVPPAAFQNLSSLGFLNLQGGQLGSLEPQALLGLENLCHLHLERNQLRSLALGTFAHTPALASLGLSNNRLSRLEDGLFEGLGSLWDLNLGWNSLAVLPDAAFRGLGSLRELVLAGNRLAYLQPALFSGLAELRELDLSRNALRAIKANVFVQLPRLQKLYLDRNLIAAVAPGAFLGLKALRWLDLSHNRVAGLLEDTFPGLLGLRVLRLSHNAIASLRPRTFKDLHFLEELQLGHNRIRQLAERSFEGLGQLEVLTLDHNQLQEVKAGAFLGLTNVAVMNLSGNCLRNLPEQVFRGLGKLHSLHLEGSCLGRIRPHTFTGLSGLRRLFLKDNGLVGIEEQSLWGLAELLELDLTSNQLTHLPHRLFQGLGKLEYLLLSRNRLAELPADALGPLQRAFWLDVSHNRLEALPNSLLAPLGRLRYLSLRNNSLRTFTPQPPGLERLWLEGNPWDCGCPLKALRDFALQNPSAVPRFVQAICEGDDCQPPAYTYNNITCASPPEVVGLDLRDLSEAHFAPC | 2 |
| C4BPA_HUMAN (protein, UniProt P04003 49-597, looked up) C4b-binding protein alpha …: NCGPPPTLSFAAPMDITLTETRFKTGTTLKYTCLPGYVRSHSTQTLTCNSDGEWVYNTFCIYKRCRHPGELRNGQVEIKTDLSFGSQIEFSCSEGFFLIGSTTSRCEVQDRGVGWSHPLPQCEIVKCKPPPDIRNGRHSGEENFYAYGFSVTYSCDPRFSLLGHASISCTVENETIGVWRPSPPTCEKITCRKPDVSHGEMVSGFGPIYNYKDTIVFKCQKGFVLRGSSVIHCDADSKWNPSPPACEPNSCINLPDIPHASWETYPRPTKEDVYVVGTVLRYRCHPGYKPTTDEPTTVICQKNLRWTPYQGCEALCCPEPKLNNGEITQHRKSRPANHCVYFYGDEISFSCHETSRFSAICQGDGTWSPRTPSCGDICNFPPKIAHGHYKQSSSYSFFKEEIIYECDKGYILVGQAKLSCSYSHWSAPAPQCKALCRKPELVNGRLSVDKDQYVEPENVTIQCDSGYGVVGPQSITCSGNRTWYPEVPKCEWETPEGCEQVLTGKRLMQCLPNPEDVKMALEVYKLSLEIEQLELQRDSARQSTLDKEL | 10 |
| LV310_HUMAN (protein, UniProt A0A075B6K4 20-115, looked up) Immunoglobulin lambda …: SYELTQPPSVSVSPGQTARITCSGDALPKKYAYWYQQKSGQAPVLVIYEDSKRPSGIPERFSGSSSGTMATLTISGAQVEDEADYYCYSTDSSGNH | 1 |
| F13B_HUMAN (protein, UniProt P05160 21-661, looked up) Coagulation factor XIII B …: EEKPCGFPHVENGRIAQYYYTFKSFYFPMSIDKKLSFFCLAGYTTESGRQEEQTTCTTEGWSPEPRCFKKCTKPDLSNGYISDVKLLYKIQENMRYGCASGYKTTGGKDEEVVQCLSDGWSSQPTCRKEHETCLAPELYNGNYSTTQKTFKVKDKVQYECATGYYTAGGKKTEEVECLTYGWSLTPKCTKLKCSSLRLIENGYFHPVKQTYEEGDVVQFFCHENYYLSGSDLIQCYNFGWYPESPVCEGRRNRCPPPPLPINSKIQTHSTTYRHGEIVHIECELNFEIHGSAEIRCEDGKWTEPPKCIEGQEKVACEEPPFIENGAANLHSKIYYNGDKVTYACKSGYLLHGSNEITCNRGKWTLPPECVENNENCKHPPVVMNGAVADGILASYATGSSVEYRCNEYYLLRGSKISRCEQGKWSSPPVCLEPCTVNVDYMNRNNIEMKWKYEGKVLHGDLIDFVCKQGYDLSPLTPLSELSVQCNRGEVKYPLCTRKESKGMCTSPPLIKHGVIISSTVDTYENGSSVEYRCFDHHFLEGSREAYCLDGMWTTPPLCLEPCTLSFTEMEKNNLLLKWDFDNRPHILHGEYIEFICRGDTYPAELYITGSILRMQCDRGQLKYPRCIPRQSTLSYQEPLRT | 4 |

Same assay, conditions: change on adding proteinase K to normal plasma

| Molecule | Effect (N-plasma + pk vs N-plasma) |
| --- | --- |
| IGHA1_HUMAN [2] (protein, UniProt P01876 1-398, looked up) Immunoglobulin heavy constant …: ASPTSPKVFPLSLCSTQPDGNVVIACLVQGFFPQEPLSVTWSESGQGVTARNFPPSQDASGDLYTTSSQLTLPATQCLAGKSVTCHVKHYTNPSQDVTVPCPVPSTPPTPSPSTPPTPSPSCCHPRLSLHRPALEDLLLGSEANLTCTLTGLRDASGVTFTWTPSSGKSAVQGPPERDLCGCYSVSSVLPGCAEPWNHGKTFTCTAAYPESKTPLTATLSKSGNTFRPEVHLLPPPSEELALNELVTLTCLARGFSPKDVLVRWLQGSQELPREKYLTWASRQEPSQGTTTFAVTSILRVAAEDWKKGDTFSCMVGHEALPLAFTQKTIDRLADWQMPPPYVVLDLPQETLEEETPGANLWPTTITFLTLFLLSLFYSTALTVTSVRGPSGNREGPQY | ↑ |
